According to patent publication US20190161483A1, “METHODS FOR USING FXR AGONISTS” (Novartis AG, priority 2017, published 2019):
At least one structure is not confirmed: it was looked up by name or label, or the drawing left a doubt.

What was measured:
STAM mice = test: STAM model of NASH; details: 25 mg/kg
NASH subjects = details: FLINT trial, cited from earlier work
NASH mice = test: Diet-induced (AMLN diet) obese, insulin-resistant NASH model; format: in vivo, mouse
Source text: A separate model for diet-induced NASH was developed as described by Trevaskis et al. Male C57BI6 mice aged ˜6 weeks were maintained on a high fat (40% kcal; Primex), high fructose (22% by weight), and high cholesterol (2% by weight) diet (Research Diets Inc., New Brunswick, N.J. cat. no. D09100301) for 26 weeks to induce NASH. Control animals received low-fat diet (10% kcal) with no fructose or cholesterol (Research Diets, cat. no. D09100304). […] . Expression of collagen, type I, alpha 1 (Col1a1) and tissue inhibitor of metalloproteinase 1 (Timp1) genes was analyzed by real time quantitative PCR.
. NASH was established in mice by feeding a high trans-fat, high fructose, and high cholesterol diet (AMLN diet) for 26 weeks followed by compound treatment for an additional 4 weeks. […] . […] .

[1] = test system: ANIT-induced cholestatic rats; test: ANIT-induced cholestasis rat model

In the case of `CC[C@H]1[C@@H](O)[C@@H]2[C@H](CC[C@]3(C)[C@@H]([C@H](C)CCC(=O)O)CC[C@@H]23)[C@@]2(C)CC[C@@H](O)C[C@@H]12` [OCA, 6α-ethyl-chenodeoxycholic acid, reference compound], the liver triglycerides (STAM mice) is given as “did not result in a significant decrease”, the “NAFLD activity score (NAS)” value (STAM mice; P>0.05) is given as “tended toward reduction” and the NASH resolution (NASH subjects; compared to placebo) is given as “no significant change”. The “patients showing improvement in fibrosis” value (NASH subjects; placebo 19%) was 35%, the “ALT and AST levels” value (NASH mice; OCA 25 mg/kg qd orally 4 weeks) was “did not show a statistically significant effect” and the hepatic crown-like structures (NASH mice; OCA-treated mice) was “but not in OCA-treated mice”. The steatosis and inflammation (NASH mice; high dose of OCA (25 mg/kg)) was “only a slight effect”, the cholestatic biomarkers ([1]; 25 mg/kg dose) was “significant decrease only in total BA and bilirubin” and the serum biochemistry parameters ([1]; OCA 1, 5, and 25 mg/kg) was “Mixed effects”.
